{
  "sequences": {"note": "Sequences of proteins named here, by UniProt entry; tags and fusion partners are left off. A change or cut given only in a name is not applied to a line headed by its entry.", "UniProt Q9NXV6": "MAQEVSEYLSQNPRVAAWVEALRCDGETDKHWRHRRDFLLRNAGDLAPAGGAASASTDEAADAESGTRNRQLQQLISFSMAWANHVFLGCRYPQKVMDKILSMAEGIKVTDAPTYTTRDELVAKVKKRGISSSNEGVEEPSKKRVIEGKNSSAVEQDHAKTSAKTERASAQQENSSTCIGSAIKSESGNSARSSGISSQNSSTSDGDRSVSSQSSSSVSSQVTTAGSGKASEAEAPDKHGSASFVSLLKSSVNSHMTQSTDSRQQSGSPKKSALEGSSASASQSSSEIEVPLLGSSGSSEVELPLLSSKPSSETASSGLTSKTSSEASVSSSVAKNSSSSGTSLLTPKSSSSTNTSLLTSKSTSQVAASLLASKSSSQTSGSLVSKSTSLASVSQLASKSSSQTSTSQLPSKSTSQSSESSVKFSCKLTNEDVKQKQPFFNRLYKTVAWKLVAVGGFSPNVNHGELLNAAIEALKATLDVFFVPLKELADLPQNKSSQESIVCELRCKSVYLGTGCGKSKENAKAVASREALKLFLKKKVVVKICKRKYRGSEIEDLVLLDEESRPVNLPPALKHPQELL", "UniProt Q53EZ4": "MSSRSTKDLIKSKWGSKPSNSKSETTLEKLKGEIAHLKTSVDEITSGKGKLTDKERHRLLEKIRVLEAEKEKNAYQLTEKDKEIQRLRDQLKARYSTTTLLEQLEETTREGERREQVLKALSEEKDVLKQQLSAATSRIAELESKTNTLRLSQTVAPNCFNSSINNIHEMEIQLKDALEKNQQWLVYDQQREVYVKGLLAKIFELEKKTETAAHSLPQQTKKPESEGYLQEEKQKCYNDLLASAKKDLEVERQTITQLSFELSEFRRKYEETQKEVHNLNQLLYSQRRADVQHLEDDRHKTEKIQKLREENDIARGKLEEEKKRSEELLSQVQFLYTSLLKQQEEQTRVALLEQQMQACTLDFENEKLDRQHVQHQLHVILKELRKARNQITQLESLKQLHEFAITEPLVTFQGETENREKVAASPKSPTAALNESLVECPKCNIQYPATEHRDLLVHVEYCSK", "UniProt P60953, whole entry, looked up": "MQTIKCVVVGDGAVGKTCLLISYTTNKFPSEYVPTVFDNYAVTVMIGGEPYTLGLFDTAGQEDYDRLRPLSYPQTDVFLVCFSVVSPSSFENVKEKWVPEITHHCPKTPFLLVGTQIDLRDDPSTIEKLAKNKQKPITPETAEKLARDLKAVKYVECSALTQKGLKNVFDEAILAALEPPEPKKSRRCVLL", "UniProt P30260, whole entry, looked up": "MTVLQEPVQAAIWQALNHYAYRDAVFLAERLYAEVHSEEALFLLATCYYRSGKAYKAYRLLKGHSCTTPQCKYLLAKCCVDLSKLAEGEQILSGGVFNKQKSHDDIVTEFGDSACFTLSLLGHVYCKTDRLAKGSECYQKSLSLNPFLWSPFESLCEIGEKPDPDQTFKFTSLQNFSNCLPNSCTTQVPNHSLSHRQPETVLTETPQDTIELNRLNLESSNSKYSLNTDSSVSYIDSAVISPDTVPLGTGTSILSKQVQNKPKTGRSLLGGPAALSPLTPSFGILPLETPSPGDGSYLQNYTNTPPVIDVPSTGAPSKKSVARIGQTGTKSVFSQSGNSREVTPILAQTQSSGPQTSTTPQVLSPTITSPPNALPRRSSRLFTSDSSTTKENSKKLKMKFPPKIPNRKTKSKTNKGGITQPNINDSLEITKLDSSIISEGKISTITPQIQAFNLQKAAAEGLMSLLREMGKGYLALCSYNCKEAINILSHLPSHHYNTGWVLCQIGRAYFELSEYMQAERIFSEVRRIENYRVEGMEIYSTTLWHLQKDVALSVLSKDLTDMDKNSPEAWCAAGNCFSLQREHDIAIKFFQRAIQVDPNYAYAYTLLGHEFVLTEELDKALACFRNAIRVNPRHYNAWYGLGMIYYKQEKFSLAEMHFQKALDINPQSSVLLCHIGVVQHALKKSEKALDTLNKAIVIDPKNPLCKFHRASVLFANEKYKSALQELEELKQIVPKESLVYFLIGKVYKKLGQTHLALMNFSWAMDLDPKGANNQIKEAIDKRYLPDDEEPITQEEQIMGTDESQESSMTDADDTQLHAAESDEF", "UniProt P17676": "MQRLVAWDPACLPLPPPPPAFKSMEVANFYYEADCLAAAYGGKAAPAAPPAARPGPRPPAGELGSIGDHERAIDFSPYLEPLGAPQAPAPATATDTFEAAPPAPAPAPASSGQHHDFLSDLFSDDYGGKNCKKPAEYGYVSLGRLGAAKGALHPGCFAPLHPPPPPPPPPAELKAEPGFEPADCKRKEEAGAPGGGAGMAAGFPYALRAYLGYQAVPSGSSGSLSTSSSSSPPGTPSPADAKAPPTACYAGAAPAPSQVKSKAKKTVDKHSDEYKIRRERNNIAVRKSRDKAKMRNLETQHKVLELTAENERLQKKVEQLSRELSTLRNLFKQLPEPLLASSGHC", "UniProt O94986": "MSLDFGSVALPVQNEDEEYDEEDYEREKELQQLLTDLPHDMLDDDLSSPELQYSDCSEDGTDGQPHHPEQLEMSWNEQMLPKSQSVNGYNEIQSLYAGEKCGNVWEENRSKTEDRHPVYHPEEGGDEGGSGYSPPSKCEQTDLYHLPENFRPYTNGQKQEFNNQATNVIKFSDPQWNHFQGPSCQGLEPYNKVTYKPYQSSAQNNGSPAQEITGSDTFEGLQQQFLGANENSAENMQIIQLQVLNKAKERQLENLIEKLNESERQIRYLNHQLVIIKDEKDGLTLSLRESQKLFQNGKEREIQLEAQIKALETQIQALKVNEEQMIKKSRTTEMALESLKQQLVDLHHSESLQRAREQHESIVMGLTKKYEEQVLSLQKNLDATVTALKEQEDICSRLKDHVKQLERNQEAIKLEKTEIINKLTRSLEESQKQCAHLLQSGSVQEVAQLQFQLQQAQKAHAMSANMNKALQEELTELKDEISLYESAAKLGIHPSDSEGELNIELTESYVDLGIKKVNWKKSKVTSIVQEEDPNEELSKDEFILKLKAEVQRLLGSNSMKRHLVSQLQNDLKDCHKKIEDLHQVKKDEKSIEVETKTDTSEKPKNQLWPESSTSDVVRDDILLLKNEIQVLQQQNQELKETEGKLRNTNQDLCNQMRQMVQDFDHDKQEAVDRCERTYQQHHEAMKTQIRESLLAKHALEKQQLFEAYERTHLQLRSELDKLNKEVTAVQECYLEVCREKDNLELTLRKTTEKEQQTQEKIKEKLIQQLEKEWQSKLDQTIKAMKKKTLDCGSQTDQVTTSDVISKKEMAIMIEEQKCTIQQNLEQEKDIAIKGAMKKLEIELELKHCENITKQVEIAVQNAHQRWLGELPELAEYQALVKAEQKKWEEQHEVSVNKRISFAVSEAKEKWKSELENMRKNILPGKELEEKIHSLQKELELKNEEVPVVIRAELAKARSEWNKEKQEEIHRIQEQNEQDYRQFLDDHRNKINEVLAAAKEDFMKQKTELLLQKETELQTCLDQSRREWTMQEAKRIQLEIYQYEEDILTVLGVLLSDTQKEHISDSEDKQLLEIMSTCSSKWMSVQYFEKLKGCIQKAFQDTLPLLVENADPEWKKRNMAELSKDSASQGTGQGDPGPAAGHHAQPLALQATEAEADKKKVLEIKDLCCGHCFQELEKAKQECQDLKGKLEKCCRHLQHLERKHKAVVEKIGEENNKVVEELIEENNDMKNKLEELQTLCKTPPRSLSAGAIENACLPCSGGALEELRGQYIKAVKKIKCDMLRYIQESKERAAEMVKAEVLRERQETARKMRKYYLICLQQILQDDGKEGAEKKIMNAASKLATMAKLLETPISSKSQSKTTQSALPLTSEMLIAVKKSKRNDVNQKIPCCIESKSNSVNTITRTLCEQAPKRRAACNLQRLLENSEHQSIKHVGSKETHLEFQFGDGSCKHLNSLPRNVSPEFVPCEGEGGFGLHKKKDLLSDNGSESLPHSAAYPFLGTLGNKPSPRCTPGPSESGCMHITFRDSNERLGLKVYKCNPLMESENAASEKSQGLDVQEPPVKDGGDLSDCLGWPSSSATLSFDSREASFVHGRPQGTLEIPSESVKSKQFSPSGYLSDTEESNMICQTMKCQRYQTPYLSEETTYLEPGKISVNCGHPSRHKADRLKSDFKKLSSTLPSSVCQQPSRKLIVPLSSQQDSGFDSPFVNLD", "UniProt Q8IW35": "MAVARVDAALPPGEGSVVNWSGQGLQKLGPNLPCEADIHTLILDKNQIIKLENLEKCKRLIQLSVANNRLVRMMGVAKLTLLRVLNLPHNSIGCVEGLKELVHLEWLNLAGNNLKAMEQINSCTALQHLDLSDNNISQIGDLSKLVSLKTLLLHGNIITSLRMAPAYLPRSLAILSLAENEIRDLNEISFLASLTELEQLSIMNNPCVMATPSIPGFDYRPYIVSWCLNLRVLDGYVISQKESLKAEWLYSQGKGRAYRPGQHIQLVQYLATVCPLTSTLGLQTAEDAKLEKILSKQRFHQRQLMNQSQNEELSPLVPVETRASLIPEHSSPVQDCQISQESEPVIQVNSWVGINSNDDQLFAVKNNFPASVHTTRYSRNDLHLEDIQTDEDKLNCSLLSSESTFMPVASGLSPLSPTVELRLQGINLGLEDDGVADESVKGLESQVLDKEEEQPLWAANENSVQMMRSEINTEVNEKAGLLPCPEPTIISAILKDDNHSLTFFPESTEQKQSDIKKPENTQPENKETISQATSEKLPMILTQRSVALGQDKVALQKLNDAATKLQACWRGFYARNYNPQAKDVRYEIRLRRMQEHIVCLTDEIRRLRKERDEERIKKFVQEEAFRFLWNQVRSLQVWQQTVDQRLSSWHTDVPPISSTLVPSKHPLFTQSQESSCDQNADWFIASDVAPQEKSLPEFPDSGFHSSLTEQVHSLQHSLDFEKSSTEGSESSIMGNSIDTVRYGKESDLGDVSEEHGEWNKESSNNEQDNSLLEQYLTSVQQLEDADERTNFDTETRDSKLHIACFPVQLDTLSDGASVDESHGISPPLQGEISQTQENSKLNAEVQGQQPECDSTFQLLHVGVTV", "UniProt Q9BYV8": "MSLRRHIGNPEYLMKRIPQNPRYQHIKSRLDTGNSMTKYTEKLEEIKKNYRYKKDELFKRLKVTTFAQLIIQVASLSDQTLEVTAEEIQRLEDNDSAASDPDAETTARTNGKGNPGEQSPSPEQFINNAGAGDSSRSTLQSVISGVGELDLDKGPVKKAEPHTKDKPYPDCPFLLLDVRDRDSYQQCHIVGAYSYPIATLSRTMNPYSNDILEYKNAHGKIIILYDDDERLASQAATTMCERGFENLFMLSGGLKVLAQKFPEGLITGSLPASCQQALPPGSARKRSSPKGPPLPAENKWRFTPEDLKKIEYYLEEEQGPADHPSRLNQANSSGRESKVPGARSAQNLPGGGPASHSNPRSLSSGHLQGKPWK", "UniProt Q9BS16": "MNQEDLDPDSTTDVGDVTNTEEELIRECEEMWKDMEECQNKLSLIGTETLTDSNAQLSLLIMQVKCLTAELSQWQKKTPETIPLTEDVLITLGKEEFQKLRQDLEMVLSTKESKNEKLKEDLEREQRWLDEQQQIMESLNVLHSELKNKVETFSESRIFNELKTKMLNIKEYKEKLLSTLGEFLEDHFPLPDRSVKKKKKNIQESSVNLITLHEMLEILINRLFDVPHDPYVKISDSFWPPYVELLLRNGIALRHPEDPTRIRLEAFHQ", "UniProt O95674": "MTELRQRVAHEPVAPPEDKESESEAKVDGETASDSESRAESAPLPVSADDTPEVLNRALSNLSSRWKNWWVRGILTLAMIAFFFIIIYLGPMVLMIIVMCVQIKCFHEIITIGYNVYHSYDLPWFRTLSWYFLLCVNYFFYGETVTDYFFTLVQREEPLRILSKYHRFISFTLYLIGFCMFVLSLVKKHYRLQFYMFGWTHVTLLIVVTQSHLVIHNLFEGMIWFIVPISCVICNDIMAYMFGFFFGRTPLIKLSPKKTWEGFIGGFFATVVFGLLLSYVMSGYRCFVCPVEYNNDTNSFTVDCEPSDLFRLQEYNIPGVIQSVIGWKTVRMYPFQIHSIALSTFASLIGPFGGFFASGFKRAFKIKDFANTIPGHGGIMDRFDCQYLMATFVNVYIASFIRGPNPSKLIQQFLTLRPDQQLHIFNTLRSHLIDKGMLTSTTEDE", "UniProt P50750, whole entry, looked up": "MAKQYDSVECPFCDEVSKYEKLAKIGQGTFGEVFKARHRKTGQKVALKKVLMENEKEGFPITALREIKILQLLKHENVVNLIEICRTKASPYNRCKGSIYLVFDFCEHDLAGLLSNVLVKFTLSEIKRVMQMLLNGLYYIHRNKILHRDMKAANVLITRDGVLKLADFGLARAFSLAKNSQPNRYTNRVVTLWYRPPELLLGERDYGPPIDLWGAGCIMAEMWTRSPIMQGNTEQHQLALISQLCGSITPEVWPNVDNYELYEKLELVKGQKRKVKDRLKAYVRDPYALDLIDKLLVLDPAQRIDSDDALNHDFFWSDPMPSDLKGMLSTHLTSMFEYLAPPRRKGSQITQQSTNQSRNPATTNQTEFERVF"},
  "source": "the supplement of paper PMC10849652",
  "note": "The list shows a part of the results.",
  "data": [
    {"compound": "c1ccc([C@@H]2C[C@H]2NC2CCNCC2)cc1", "test": "log2 fold change, soluble protein after heating vs DMSO (PISA); higher = thermal stabilisation; K562 lysate, 10 uM; active = over 0.2 and 3.5 SD of the protein, either way, in both replicates (recomputed)", "method_in_brief": "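Following dounce homogenisation of K562 pellets in PBS pH 7.4 with 1 mM MgCl2, crude extract at 1 mg/mL protein was incubated for 30 min with 10 μM compound. Aliquots were then heated for 3 min over 48°C-58°C and pooled, NP-40 was added to 0.5% at 4°C, and soluble protein was recovered as the supernatant at 21,000xg for 90 min. Channel-sum-equalised TMTpro 16plex LC-MS/MS quantified this protein. Each value, from duplicates, is a log-two fold change in thermal stability relative to solvent controls.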", "values": [
      {"target": "CDC34 (UniProt P49427)", "log2 fold change": "inactive: 0.04"},
      {"target": "CDKN2AIP (UniProt Q9NXV6)", "log2 fold change": "inactive: -0.013"},
      {"target": "CHAC2 (UniProt Q8WUX2)", "log2 fold change": "active: 0.344"},
      {"target": "CEP55 (UniProt Q53EZ4)", "log2 fold change": "inactive: 0.033"},
      {"target": "CFAP20 (UniProt Q9Y6A4)", "log2 fold change": "inactive: -0.082"},
      {"target": "CFH (UniProt P08603)", "log2 fold change": "inactive: 0.067"},
      {"target": "CEP85 isoform 2 (UniProt Q6P2H3)", "log2 fold change": "inactive: 0.078"},
      {"target": "CFDP1 (UniProt Q9UEE9)", "log2 fold change": "inactive: -0.124"},
      {"target": "CEPT1 (UniProt Q9Y6K0)", "log2 fold change": "inactive: 0.061"},
      {"target": "CEP120 (UniProt Q8N960)", "log2 fold change": "inactive: 0.184"},
      {"target": "CEP131 (UniProt Q9UPN4)", "log2 fold change": "inactive: -0.101"},
      {"target": "CDC42 isoform 1 (UniProt P60953)", "log2 fold change": "inactive: -0.201"},
      {"target": "CDC27 isoform 2 (UniProt P30260)", "log2 fold change": "inactive: 0.037"},
      {"target": "CEBPB (UniProt P17676)", "log2 fold change": "inactive: -0.114"},
      {"target": "CEP152 (UniProt O94986)", "log2 fold change": "inactive: -0.028"},
      {"target": "CEP97 (UniProt Q8IW35)", "log2 fold change": "inactive: -0.01"},
      {"target": "CEP41 (UniProt Q9BYV8)", "log2 fold change": "inactive: -0.045"},
      {"target": "CDC42BPA isoform 6 (UniProt Q5VT25)", "log2 fold change": "inactive: 0.052"},
      {"target": "CENPK (UniProt Q9BS16)", "log2 fold change": "inactive: 0.033"},
      {"target": "CDS2 (UniProt O95674)", "log2 fold change": "inactive: -0.024"},
      {"target": "CDK9 isoform 2 (UniProt P50750)", "log2 fold change": "inactive: -0.114"},
      {"target": "CD97 (UniProt P48960)", "log2 fold change": "inactive: -0.056"},
      {"target": "CGGBP1 (UniProt Q9UFW8)", "log2 fold change": "inactive: -0.033"}
    ]}
  ]
}
